PubChem BioAssay AID1508597, Cure First, 2020
The whole screen tested about 2,100 reagents; shown is an unselected part. 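Calls flag viability under 80% in either arm, not effects specific to rucaparib; the reference for percent is not stated.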 Reagent sequences are not shown. Not stated in the record: the 100% reference.

Aim: 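Survival screen with siRNA in ovarian cancer cells derived from patients, with or without rucaparib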 (primary screen)
Cells: human ovarian carcinoma lines grown from tumours: OCI-P5x (papillary serous) and OCI-C5x (clear cell)
Reagent: siRNA pool against human genes, 1.25 pmol siRNA per well
Time to read-out: 72 h or 96 h, depending on the cell culture
Conditions: rucaparib 20 µM (about IC30) or vehicle, present until read-out
Measured: 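Luminescent ATP-based viability assay read 72 or 96 h after transfection, depending on culture, given as normalised percent viability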
Scale: viability, normalised: higher = more viable cells remaining
Active means: 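Active when normalised viability falls below 80 percent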
Calls: active = viability under 80%; inactive = viability 80% or more

With FANCF, rucaparib or vehicle Rucaparib, cell line OCI-C5x (clear cell), technical replicate 1, the entry reads viability, normalised (%) = 48; active.
FANCF, rucaparib or vehicle Rucaparib, cell line OCI-C5x (clear cell), technical replicate 2 gave viability, normalised (%) = 35.1; active.
For FANCF, rucaparib or vehicle Rucaparib, cell line OCI-C5x (clear cell), technical replicate 3, the values are viability, normalised (%) = 55.8; active.
With FANCF, rucaparib or vehicle Rucaparib, cell line OCI-P5x (serous), technical replicate 1, the values are viability, normalised (%) = 64.6; active.
With FANCF, rucaparib or vehicle Rucaparib, cell line OCI-P5x (serous), technical replicate 2, the values are viability, normalised (%) = 72.5; active.
For FANCF, rucaparib or vehicle Rucaparib, cell line OCI-P5x (serous), technical replicate 3 the deposit lists viability, normalised (%) = 64.9; active.
FANCF, rucaparib or vehicle Vehicle, cell line OCI-C5x (clear cell), technical replicate 1 scored viability, normalised (%) = 38.5; active.
FANCF, rucaparib or vehicle Vehicle, cell line OCI-C5x (clear cell), technical replicate 2 showed viability, normalised (%) = 43; active.
FANCF, rucaparib or vehicle Vehicle, cell line OCI-C5x (clear cell), technical replicate 3 scored viability, normalised (%) = 36.4; active.
FANCF, rucaparib or vehicle Vehicle, cell line OCI-P5x (serous), technical replicate 1 scored viability, normalised (%) = 70.4; active.
FANCF, rucaparib or vehicle Vehicle, cell line OCI-P5x (serous), technical replicate 2 showed viability, normalised (%) = 65.5; active.
With FANCF, rucaparib or vehicle Vehicle, cell line OCI-P5x (serous), technical replicate 3, the entry reads viability, normalised (%) = 52.4; active.
